Assay [1] concerns HeLa K (ENP1 immunofluorescence, +LMB). The experiment in a line: fraction of cells with nucleolar or nucleolar/nucleoplasmic ENP1 signal (MainHitrate); higher = more cells with nucleolar/nuclear readout signal (for ENP1 -LMB: less RNAPI inhibition; for +LMB ENP1 and RP reporters: stronger nuclear/nucleolar retention, i.e. ribosome biogenesis defect). The following applies: concentration: 1 µM; treatment time: 6 h; ENP1 +LMB; leptomycin B: 20 nM, last 1.5 h.

Assay [2] has as its system HeLa K (ENP1 immunofluorescence, no LMB). The description is as above. The following applies: concentration: 1 µM; treatment time: 6 h; ENP1 -LMB; leptomycin B: none.
Assay [3] relates to HeLa RPS2-YFP reporter. Nature of the assay: fraction of reporter-positive cells with nuclear (nucleolar or nucleolar/nucleoplasmic) RPS2-YFP (MainHitrate); higher = more cells with nucleolar/nuclear readout signal (for ENP1 -LMB: less RNAPI inhibition; for +LMB ENP1 and RP reporters: stronger nuclear/nucleolar retention, i.e. ribosome biogenesis defect). The following applies: concentration: 1 µM; treatment time: 6 h.

The subject of assay [4] is HeLa RPL29-GFP reporter. The experiment in a line: fraction of reporter-positive cells with nuclear (nucleolar or nucleolar/nucleoplasmic) RPL29-GFP (MainHitrate); higher = more cells with nucleolar/nuclear readout signal (for ENP1 -LMB: less RNAPI inhibition; for +LMB ENP1 and RP reporters: stronger nuclear/nucleolar retention, i.e. ribosome biogenesis defect). The following applies: concentration: 1 µM; treatment time: 6 h.

SMILES strings stand for the structures. Structures can show the parent of a compound that is named as a salt. ± gives the standard deviation of the averaged measurements. This is one part of the list. These are raw signals, not scaled to a control.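 HeLa cells imaged for ribosome-assembly readouts (ENP1 staining with or without export block, or inducible tagged ribosomal protein reporters); machine learning classified each cell's signal location against solvent (DMSO) controls. Hits exceeded the DMSO false-positive mean by five standard deviations, then were visually confirmed; three biological replicates.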

With `COC(=O)C1=CO[C@@H](O[C@@H]2O[C@H](CO)[C@@H](O)[C@H](O)[C@H]2O)[C@@H]2C(CO)=CC[C@H]12` [Geniposide], the fraction in assay [1] came to 0.129 ± 0.2; in assay [2], 0.993 ± 0.012. The “fraction of reporter-positive cells with nuclear” value (“fraction … with nuclear” for short) in assay [3] is 0.105 ± 0.057; in assay [4], 0.22 ± 0.086.

As to `O=C1OC(CN2CCOCC2)CN1/N=C/c1ccc([N+](=O)[O-])o1` (centres undefined) [Furaltadone HCl], the figures for the fraction in assay [1] and in assay [2] were 0.0716 ± 0.1 and 0.994 ± 0.011, respectively. Moreover, the “fraction … with nuclear” value in assay [3] worked out at 0.122 ± 0.1; in assay [4], 0.21 ± 0.065.

With `O=C1N=C(O)NC1(c1ccccc1)c1ccccc1` [Phenytoin sodium (Dilantin)], the fraction was 0.133 ± 0.2 in assay [1] and 0.994 ± 0.01 in assay [2]. Also, the “fraction … with nuclear” value in assay [3] is 0.117 ± 0.068; in assay [4], 0.224 ± 0.069.

Consider `O=c1[nH]c(=O)n([C@H]2C[C@H](O)[C@@H](CO)O2)cc1F` [Floxuridine], for which the fraction in assay [1] came to 0.037 ± 0.017; in assay [2] it was 0.9988 ± 0.0022. Also, the “fraction … with nuclear” value in assay [3] amounted to 0.0607 ± 0.04; in assay [4], 0.263 ± 0.16.

As to `CN(C)CCCSC(=N)N` [Dimaprit 2HCl], the fraction was 0.0514 ± 0.056 in assay [1] and 0.99948 ± 0.0009 in assay [2]. The results for the “fraction … with nuclear” value in assay [3] and in assay [4] were 0.149 ± 0.17 and 0.299 ± 0.22, respectively.

For the molecule `CCOC(=O)C1=C(COCCN)NC(C)=C(C(=O)OC)C1c1ccccc1Cl` (centres undefined) [Amlodipine (Norvasc)], the fraction in assay [1] was determined as 0.136 ± 0.2; in assay [2], 0.977 ± 0.04. Moreover, the “fraction … with nuclear” value in assay [3] was 0.138 ± 0.081; in assay [4], 0.226 ± 0.067.

In the case of `CC(C(=O)O)c1ccc2c(c1)[nH]c1ccc(Cl)cc12` (centres undefined) [Carprofen], the results for the fraction in assay [1] and in assay [2] were 0.0805 ± 0.11 and 0.9958 ± 0.0073, respectively. Moreover, the “fraction … with nuclear” value came out at 0.125 ± 0.12 in assay [3] and 0.204 ± 0.067 in assay [4].

Consider `CC(C(=O)O)c1ccc(C(=O)c2cccs2)cc1` (centres undefined) [Suprofen (Profenal)], for which the figures for the fraction in assay [1] and in assay [2] were 0.134 ± 0.18 and 0.9982 ± 0.003, respectively. In addition, the entries for the “fraction … with nuclear” value in assay [3] and in assay [4] were 0.109 ± 0.077 and 0.206 ± 0.076, respectively.

On to `CC1=C(C(=O)OC(C)C)C(c2cccc([N+](=O)[O-])c2)C(C(=O)OC2CN(C(c3ccccc3)c3ccccc3)C2)=C(N)N1` (centres undefined) [Azelnidipine], for which the fraction in assay [1] worked out at 0.11 ± 0.16; in assay [2], 0.986 ± 0.025. Also, the “fraction … with nuclear” value came out at 0.121 ± 0.095 in assay [3] and 0.221 ± 0.065 in assay [4].

For the molecule `Cn1c(=O)c2c(ncn2CC2OCCO2)n(C)c1=O` [Doxofylline], the fraction was found to be 0.101 ± 0.14 in assay [1] and 0.968 ± 0.055 in assay [2]. The “fraction … with nuclear” value was determined as 0.126 ± 0.083 in assay [3] and 0.222 ± 0.063 in assay [4].

`COc1cccc2c1C(=O)c1c(O)c3c(c(O)c1C2=O)C[C@@](O)(C(=O)CO)C[C@@H]3O[C@H]1C[C@H](N)[C@H](O)[C@H](C)O1` [Doxorubicin (Adriamycin)]: the fraction stood at 0.0732 ± 0.12 in assay [1] and 0.682 ± 0.55 in assay [2]. The “fraction … with nuclear” value in assay [3] came out at 0.033 ± 0.022; in assay [4], 0.671 ± 0.44.

On to `Cc1nc2n(c(=O)c1CCN1CCC(c3noc4cc(F)ccc34)CC1)CCCC2` [Risperidone (Risperdal)], for which the fraction in assay [1] stood at 0.106 ± 0.13; in assay [2], 0.9986 ± 0.0025. The “fraction … with nuclear” value in assay [3] was determined as 0.104 ± 0.054; in assay [4] it was 0.221 ± 0.056.

As to `C[C@H]1O[C@@H](n2cc(F)c(=O)[nH]c2=O)[C@H](O)[C@@H]1O` [Doxifluridine], the figures for the fraction in assay [1] and in assay [2] were 0.144 ± 0.22 and 0.992 ± 0.013, respectively. For the same molecule, the “fraction … with nuclear” value in assay [3] came out at 0.105 ± 0.063; in assay [4], 0.226 ± 0.07.

Consider `CCOc1ccc(NC(C)=O)cc1` [Phenacetin], for which the fraction in assay [1] was determined as 0.0661 ± 0.078; in assay [2] it was 0.9977 ± 0.004. The “fraction … with nuclear” value in assay [3] amounted to 0.127 ± 0.11; in assay [4], 0.206 ± 0.086.

`N[C@@H](Cc1ccc(O)c(O)c1)C(=O)O` [Levodopa (Sinemet)]: the fraction is 0.299 ± 0.33 in assay [1] and 0.9989 ± 0.002 in assay [2]. In addition, the “fraction … with nuclear” value in assay [3] worked out at 0.13 ± 0.07; in assay [4] it was 0.208 ± 0.064.

For `O=C(O)c1cn(C2CC2)c2cc(N3CCNCC3)c(F)cc2c1=O` [Ciprofloxacin (Cipro)], the values for the fraction in assay [1] and in assay [2] were 0.155 ± 0.22 and 0.9952 ± 0.0083, respectively. The “fraction … with nuclear” value in assay [3] was 0.109 ± 0.056; in assay [4] it was 0.242 ± 0.086.

As for `CO/N=C(\C(=O)N[C@@H]1C(=O)N2C(C(=O)O)=C(Cn3ccc(=N)n3CCO)CS[C@H]12)c1csc(N)n1` [Cefoselis sulfate], the results for the fraction in assay [1] and in assay [2] were 0.094 ± 0.08 and 0.9981 ± 0.0033, respectively. Also, the “fraction … with nuclear” value came out at 0.122 ± 0.084 in assay [3] and 0.211 ± 0.084 in assay [4].

For `O=C(O)/C=C/c1ccc(Cn2ccnc2)cc1` [Ozagrel], the fraction in assay [1] was 0.106 ± 0.16; in assay [2], 0.9962 ± 0.0065. The “fraction … with nuclear” value in assay [3] was determined as 0.0904 ± 0.063; in assay [4] it was 0.223 ± 0.053.

Regarding `Clc1ccc2c(c1)C(N1CCNCC1)=Nc1ccccc1O2` [Amoxapine], the fraction amounted to 0.0784 ± 0.12 in assay [1] and 0.99 ± 0.017 in assay [2]. Moreover, the “fraction … with nuclear” value in assay [3] turned out to be 0.133 ± 0.12; in assay [4], 0.209 ± 0.07.

`CN(C)[C@@H]1C(O)=C(C(N)=O)C(=O)[C@@]2(O)C(O)=C3C(=O)c4c(O)ccc(Cl)c4[C@@](C)(O)[C@H]3C[C@@H]12` [Chlortetracycline HCl]: the fraction in assay [1] was 0.0539 ± 0.068; in assay [2], 0.988 ± 0.021. Further, the figures for the “fraction … with nuclear” value in assay [3] and in assay [4] were 0.0956 ± 0.094 and 0.27 ± 0.015, respectively.

For `Cc1cc(-n2c(=O)[nH]c(=O)n(C)c2=O)ccc1Oc1ccc(SC(F)(F)F)cc1` [toltrazuril], the fraction in assay [1] was 0.0309 ± 0.031; in assay [2] it was 0.992 ± 0.015. Moreover, the entries for the “fraction … with nuclear” value in assay [3] and in assay [4] were 0.117 ± 0.11 and 0.195 ± 0.058, respectively.

Consider `CC(=O)NS(=O)(=O)c1ccc(N)cc1` [sulfacetamide sodium], for which the fraction in assay [1] was found to be 0.119 ± 0.17; in assay [2], 0.992 ± 0.015. The “fraction … with nuclear” value in assay [3] turned out to be 0.12 ± 0.1; in assay [4], 0.218 ± 0.054.

In the case of `NS(=O)(=O)c1cc2c(cc1Cl)NC(C(Cl)Cl)NS2(=O)=O` (centres undefined) [Trichlormethiazide (Achletin)], the figures for the fraction in assay [1] and in assay [2] were 0.0563 ± 0.035 and 0.9979 ± 0.0037, respectively. The “fraction … with nuclear” value was 0.081 ± 0.071 in assay [3] and 0.227 ± 0.058 in assay [4].

For `Nc1nc(=O)n([C@@H]2CS[C@H](CO)O2)cc1F` [Emtricitabine (Emtriva)], the fraction stood at 0.0701 ± 0.031 in assay [1] and 0.9973 ± 0.0047 in assay [2]. The entries for the “fraction … with nuclear” value in assay [3] and in assay [4] were 0.101 ± 0.076 and 0.218 ± 0.098, respectively.

For the molecule `CCCCC1(COC(=O)CCC(=O)O)C(=O)N(c2ccccc2)N(c2ccccc2)C1=O` [Suxibuzone], the values for the fraction in assay [1] and in assay [2] were 0.175 ± 0.23 and 0.9953 ± 0.0081, respectively. Moreover, the results for the “fraction … with nuclear” value in assay [3] and in assay [4] were 0.181 ± 0.18 and 0.308 ± 0.3, respectively.

Regarding `C=C1CC[C@H](O)C/C1=C/C=C1\CCC[C@]2(C)[C@@H]([C@H](C)/C=C/[C@H](C)C(C)C)CC[C@@H]12` [Vitamin D2], the fraction in assay [1] turned out to be 0.0442 ± 0.051; in assay [2] it was 0.987 ± 0.022. The “fraction … with nuclear” value in assay [3] came to 0.108 ± 0.1; in assay [4] it was 0.201 ± 0.019.
